For at least one compound, name, drawing or mass did not settle the structure.
Test system: E. coli
Test: ALP binding to bacteria in presence of carbohydrates, polysaccharides, glycopeptides and lectins (Example 5, Table 3)
Conditions: ALP 100 mUnits plus 15 μg of additive
Experimental: Bacterial cells (1 to 4.5×10^7 cells/mL) were washed twice with water after centrifugation to separate cells into a packed pellet from the supernatant liquid. The washed cells in pellet form were suspended in 20 μl of EPPS buffer (50 mM at pH 8.0) and 30 μL of water. Hemoglobin (20 μg) was added as a blocking additive. Alkaline phosphatase (ALP) (100 mUnits) from bovine intestine and 15 μg of simple carbohydrates or proteoglycan or lectins, were added.
The mixture of glycated protein and bacterial cells was left at 25° C. for 15 minutes. The mixture was then centrifuged at 30,000 rpm for 30 minutes after which the bacterial cells formed a pellet at the bottom of the tube and were washed with water 4-5 times (50 μL). Centrifugation allows separation of glycoprotein bound to the bacteria cells from unbound glycated protein(s).
After washing, the bacterial pellets were suspended in 50 μL of sodium tetraborate buffer (25 mM at pH 9.5). A 5 uL aliquot of the suspension was assayed for detection of ALP binding by adding 5 μL of para-nitrophenol phosphate (PNPP, 100 mM), 50 μL sodium borate buffer (25 mM at pH 9.0) and 140 μL of water. […] The color is read at 405 nm using a ELISA plate reader between 15-30 min and the absorbance is directly proportional to the amount of ALP bound to the bacteria cell adhesions for glycated groups.

Structure (SMILES): CC(=O)N[C@H]1[C@H]([C@H](O)[C@H](O)CO)OC(O)(C(=O)O)C[C@@H]1O (stereo partly shown) [Sialic Acid, N-Acetyleneuaminic Acid]
- absorbance (405 nm) of ALP bound to bacteria: 2.0
